These are yes or no findings as the source states them, for the method shown. Some entries that bind do so weakly or less than the wild type.
Experiments:
ovalbumine [1] = target: ovalbumine (UniProt P01012); assay: column 'Antigen recognized by antibody'
ovalbumine [2] = target: ovalbumine (UniProt P01012); assay: phage display panning; evaluated in ELISA

Amino acid sequences for entries named in this document (tags omitted). Residues count along the entry.
UniProt P01012, residues 2-386: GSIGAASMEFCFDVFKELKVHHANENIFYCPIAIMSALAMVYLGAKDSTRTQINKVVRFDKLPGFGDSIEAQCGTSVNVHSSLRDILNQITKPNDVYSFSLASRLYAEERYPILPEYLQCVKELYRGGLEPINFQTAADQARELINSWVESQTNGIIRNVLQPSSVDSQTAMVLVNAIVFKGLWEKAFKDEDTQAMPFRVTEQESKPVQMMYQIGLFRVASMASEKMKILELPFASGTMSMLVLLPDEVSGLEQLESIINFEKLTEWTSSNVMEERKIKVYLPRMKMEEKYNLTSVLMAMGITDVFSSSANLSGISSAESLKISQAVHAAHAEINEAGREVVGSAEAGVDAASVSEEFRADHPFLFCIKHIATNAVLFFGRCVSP

Binder	binding (ovalbumine [1])	binding (ovalbumine [2])
1DBOVA23 (VHH) VHH: QVQLVESGGGSVQAGGSLIISCAASGFDFSNNYMTWVRQAPGKGVEWVSGISVSGSITHYTDSVKGRFTISRDNAKNTLYLQMNSLRSEDTARYYCGTGGYGRYYGTLGQGTQVTVSS	binds	binds
1DBOVA43 (VHH) VHH: QVQLVESGGGLVQPGGSLRLSCVGSGFTFSSYYISWVRQAPGKGLEWVSGISGSGATTSYTDSVKGRFTISRDNAKNTVYLQLNSLETEDSAMYYCRLGYGTPPGGVWPSQRQGTQVTVSS	binds	binds
A4-17 (VHH) VHH: QVQLQASGGGLVQPGGSLRLSCAASGFDFSNVYMTWVRQAPGKGVEWVSGISVSGSITHYSDSVKDRFTISRDNAKNTLYLQMNSLKSEDTARYYCARGGYNTYSGALGQGTQVTVSS	binds	binds
A2-19 (VHH) VHH: QVQLQASGGGLVQPGGSLKLSCVVSGFLFSNYAFSWVRQAPGKGLEWVSTIGTSSGYTNYAPSVKGRFTISRDNAKNTVYLQLNSLKTEDTAMYYCRRPGTDERGQGTQVTVSS	binds	binds

Other lines, results leading:

binding (ovalbumine [1])	binding (ovalbumine [2])	Binder
binds	binds	B13 (VHH) VHH: QVQLQASGGGLVQPGGSLRLSCAASGFDFMNVYMTWVRQAPGKGVEWVSGISVSGSITHYSESVKGRFTISRDNAKNMLYLQMNSLKSEDTARYYCARGGYNRYYGALGQGTLVTVSS
binds	binds	B368 (VHH) VHH: VQLVESGGGSVQAGGSLILSCTASGLPYKSYCMGWFRQAAGKEPEGVATINSGTGSKFYTDSVKGRFTISLDNDNNRVYLEMSSLKPEDTATYYCAAGQRHSCGYVLKNTDGWTHRAQGTQVTVSS

From patent publication US20120172578A1 (VLAAMS INTERUNIVERSITAIR INSTITUUT VOOR BIOTECHNOLOGIE, published 2012)
